{"source": "PubChem BioAssay AID1259425 (University of Nebraska Medical Center, 2018)", "test": "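Seek colon cancer weak points whose silencing resembles KSR1 loss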 (primary screen)", "cells": "HCT116 human colon cancer cells", "reagent": "siRNA pool against human genes, 50 nM siRNA", "measurement": "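mRNA of six signature genes measured together by branched-DNA assay after 50 nM siRNA pool, blank removed, divided by geometric mean of two housekeeping genes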", "scale": "BNIP3L mRNA: higher = more BNIP3L transcript after knockdown; NDRG1 mRNA: higher = more NDRG1 transcript after knockdown", "note": "This is a random part of about 14,000 reagents. Not all columns of the deposit are shown. No sequences are given here. The record does not give: the time to read-out."}
{"gene": "RSPO3", "BNIP3L mRNA, set 1": 0.0622, "NDRG1 mRNA, set 1": 0.134}
{"gene": "PTBP1", "BNIP3L mRNA, set 1": 0.0993, "NDRG1 mRNA, set 1": 0.231}
{"gene": "YTHDF1", "BNIP3L mRNA, set 1": 0.0863, "NDRG1 mRNA, set 1": 0.101}
{"gene": "ABHD14B", "BNIP3L mRNA, set 1": 0.252, "NDRG1 mRNA, set 1": 0.523}
{"gene": "COPS3", "BNIP3L mRNA, set 1": 0.135, "NDRG1 mRNA, set 1": 0.353}
{"gene": "SLC6A4", "BNIP3L mRNA, set 1": 0.0884, "NDRG1 mRNA, set 1": 0.0929}
{"gene": "CEP15", "BNIP3L mRNA, set 1": 0.0773, "NDRG1 mRNA, set 1": 0.235}
{"gene": "UGP2", "BNIP3L mRNA, set 1": 0.112, "NDRG1 mRNA, set 1": 0.197}
{"gene": "VDAC2", "BNIP3L mRNA, set 1": 0.066, "NDRG1 mRNA, set 1": 0.2}
{"gene": "SMAD5", "BNIP3L mRNA, set 1": 0.0513, "NDRG1 mRNA, set 1": 0.099}
{"gene": "CASP5", "BNIP3L mRNA, set 1": 0.0894, "NDRG1 mRNA, set 1": 0.0469}
{"gene": "PARD6G", "BNIP3L mRNA, set 1": 0.153, "NDRG1 mRNA, set 1": 0.138}
{"gene": "DNAI7", "BNIP3L mRNA, set 1": 0.251, "NDRG1 mRNA, set 1": 0.225}
{"gene": "MAN1A2", "BNIP3L mRNA, set 1": 0.142, "NDRG1 mRNA, set 1": 0.332}
{"gene": "MYH6", "BNIP3L mRNA, set 1": 0.161, "NDRG1 mRNA, set 1": 0.567}
{"gene": "PPP3R1", "BNIP3L mRNA, set 1": 0.278, "NDRG1 mRNA, set 1": 0.821}
{"gene": "ADAMTSL2", "BNIP3L mRNA, set 1": 0.193, "NDRG1 mRNA, set 1": 0.356}
{"gene": "COG1", "BNIP3L mRNA, set 1": 0.187, "NDRG1 mRNA, set 1": 1.39}
{"gene": "NDNF", "BNIP3L mRNA, set 1": 0.152, "NDRG1 mRNA, set 1": 0.26}
{"gene": "EVPL", "BNIP3L mRNA, set 1": 0.0797, "NDRG1 mRNA, set 1": 0.0462}
{"gene": "TACC2", "BNIP3L mRNA, set 1": 0.147, "NDRG1 mRNA, set 1": 0.0878}
{"gene": "POLR2A", "BNIP3L mRNA, set 1": 0.146, "NDRG1 mRNA, set 1": 0.254}
{"gene": "TMX4", "BNIP3L mRNA, set 1": 0.106, "NDRG1 mRNA, set 1": 0.0882}
{"gene": "SH2D3C", "BNIP3L mRNA, set 1": 0.177, "NDRG1 mRNA, set 1": 0.589}
{"gene": "GP1BA", "BNIP3L mRNA, set 1": 0.204, "NDRG1 mRNA, set 1": 1.02}
{"gene": "EGFL7", "BNIP3L mRNA, set 1": 0.127, "NDRG1 mRNA, set 1": 0.281}
{"gene": "TSPAN4", "BNIP3L mRNA, set 1": 0.0211, "NDRG1 mRNA, set 1": 0.455}
{"gene": "KANK2", "BNIP3L mRNA, set 1": 0.0909, "NDRG1 mRNA, set 1": 0.182}
{"gene": "CXCR4", "BNIP3L mRNA, set 1": 0.132, "NDRG1 mRNA, set 1": 0.201}
{"gene": "CYP11A1", "BNIP3L mRNA, set 1": 0.0786, "NDRG1 mRNA, set 1": 0.235}
{"gene": "LCE3D", "BNIP3L mRNA, set 1": 0.16, "NDRG1 mRNA, set 1": 0.855}
{"gene": "AD7C-NTP (retired record)", "BNIP3L mRNA, set 1": 0.072, "NDRG1 mRNA, set 1": 0.926}
{"gene": "GRHL2", "BNIP3L mRNA, set 1": 0.0703, "NDRG1 mRNA, set 1": 1.33}
{"gene": "KDELR3", "BNIP3L mRNA, set 1": 0.0936, "NDRG1 mRNA, set 1": 0.323}
{"gene": "PTGS1", "BNIP3L mRNA, set 1": 0.0596, "NDRG1 mRNA, set 1": 0.0957}
{"gene": "FBXO2", "BNIP3L mRNA, set 1": 0.0483, "NDRG1 mRNA, set 1": 0.247}

Already shown: entries from further up.
{"gene": "PPP3R1", "BNIP3L mRNA, set 1": 0.278, "NDRG1 mRNA, set 1": 0.821}
{"gene": "ADAMTSL2", "BNIP3L mRNA, set 1": 0.193, "NDRG1 mRNA, set 1": 0.356}
